{"source": "PubChem BioAssay AID540276", "about": "(National Center for Advancing Translational Sciences (NCATS), 2011)", "note": "The whole screen tested about 300,000 compounds, of which about 5,400 (1.8%) were called active. The shares of active, inactive and inconclusive entries below differ from those in the screen. Calls come from the whole dose curve; tested in HEK293 cells. Potencies of inconclusive entries are doubtful fits and often do not repeat. % is set by controls: 0 for no effect and ±100 for the full control effect; potency is the fitted concentration of half-maximal effect."}
{"assay": "qHTS for inhibitors of binding or entry into cells for Marburg Virus", "details": "Marburg virus pseudotyped entry inhibition, cell reporter; activity change, negative = inhibition: at 37.8 µM (top of the series) unless noted"}
{"molecule": "Cc1c(C)n(C)c2ccc(C(=O)NCCCN3CCN(C)CC3)cc12", "Potency": "inconclusive: 7.08 µM [inhibitor, partial curve, poor fit]"}
{"molecule": "Cc1cccc(Nc2nc3c(S(=O)(=O)c4ccccc4)nnn3c3ccccc23)c1", "activity change, negative = inhibition": "inactive: 6.75%"}
{"molecule": "CCOc1ccc2nc(Cl)c(C3CC(c4ccc(OC)cc4)=NN3S(C)(=O)=O)cc2c1", "note": "(configuration not stated)", "Potency": "inconclusive: 12.6 µM [activator, partial curve]"}
{"molecule": "O=C(OCc1nnc(-c2ccccc2)o1)c1ccc2ccccc2n1", "activity change, negative = inhibition": "inactive: -13.6%"}
{"molecule": "CCOC(=O)c1oc2ccc(S(=O)(=O)n3nc(-c4cc(OC)c(OC)c(OC)c4)cc3N)cc2c1C", "Potency": "inactive"}
{"molecule": "Cc1c(O)cc2n(c1=O)-c1ccccc1C2(C)C", "activity change, negative = inhibition": "inactive: 16.5%"}
{"molecule": "CN(CC1CCN(CCc2cccc(C(F)(F)F)c2)CC1)C(=O)c1ccc(F)cc1", "Potency": "inconclusive: 35.5 µM [inhibitor, single point]"}
{"molecule": "CC(C)Cn1cnc2c(SCCc3ccccc3)nc(N)nc21", "Potency": "inconclusive: 35.5 µM [inhibitor, single point]"}
{"molecule": "CCOC(=O)/C=C1\\Nc2ccccc2OC1=O", "activity change, negative = inhibition": "inactive: -7.05%"}
{"molecule": "CCOC(=O)c1[nH]c2ccc(F)cc2c1NC(=O)Nc1ccccc1OC", "Potency": "inconclusive: 2.82 µM [inhibitor, partial curve, poor fit]"}
{"molecule": "Cc1ccc(C(O)CCc2ccc(N)cc2)cc1", "note": "(configuration not stated)", "Potency": "inconclusive: 12.6 µM [activator, single point]"}
{"molecule": "O=S(=O)(Nc1ccc(O)c(Sc2nc3ccccc3s2)c1)c1ccc(F)cc1", "activity change, negative = inhibition": "inactive: 3.12%"}
{"molecule": "O=C(CCS(=O)(=O)c1ccccc1)NCCS(=O)(=O)c1ccccc1", "activity change, negative = inhibition": "inactive: -3.7% [at 46.1 µM]"}
{"molecule": "Cc1ccc(C2=NN(C(=O)c3ccccc3F)C(c3ccccc3F)C2)cc1", "note": "(configuration not stated)", "Potency": "inconclusive: 17.8 µM [inhibitor, partial curve, poor fit]"}
{"molecule": "Cc1ccc(-n2nc(CO)c(C(=O)NCCCc3ccccc3)n2)cc1C", "activity change, negative = inhibition": "inactive: -12.7% [at 46.1 µM]"}
{"molecule": "Oc1ccc2ccc(Cl)cc2c1", "Potency": "inconclusive: 0.447 µM [activator, full curve, poor fit]"}
{"molecule": "CN(C)CCCNC(=S)N1CCN(c2nc(-c3ccccc3)cs2)CC1", "Potency": "inconclusive: 14.1 µM [inhibitor, single point]"}
{"molecule": "COc1ccc(Cl)cc1NC(=O)CN1C(=O)CN=C(c2ccccc2)c2cc(Cl)ccc21", "Potency": "inconclusive: 35.5 µM [inhibitor, single point]"}
{"molecule": "COc1ccc(CNCc2c(O)c(Cl)cc3c(C)c(C)c(=O)oc23)c(OC)c1", "activity change, negative = inhibition": "inactive: -17%"}
{"molecule": "CC[n+]1c(-c2ccccc2)c2cc(N)ccc2c2ccc(N)cc21", "Potency": "inconclusive: 10 µM [inhibitor, partial curve, poor fit]"}
{"molecule": "NS(=O)(=O)c1ccc(NC(=O)CN2C(=O)COc3ccc(Cl)cc32)cc1", "activity change, negative = inhibition": "inactive: 11.2% [at 46.1 µM]"}
{"molecule": "COc1ccccc1N1CCN(C(=O)NCc2ccc(Cl)cc2)CC1", "activity change, negative = inhibition": "inactive: -9.28% [at 46.1 µM]"}
{"molecule": "CN1C(=O)N(C)C(NC(=O)Nc2ccccc2)C1NC(=O)Nc1ccccc1", "note": "(configuration not stated)", "activity change, negative = inhibition": "inactive: -10.3%"}
{"molecule": "COc1ccc(C(=O)OCCN2CCN(C3=NS(=O)(=O)c4ccccc43)CC2)cc1OC", "activity change, negative = inhibition": "inactive: -6.51% [at 46.1 µM]"}
{"molecule": "N#Cc1cccc(C(=O)Nc2ccccc2C(=O)NC2CC2)c1", "activity change, negative = inhibition": "inactive: -1.99% [at 46.1 µM]"}
{"molecule": "CCS(=O)(=O)N1Cc2ccccc2CC1C(=O)NC(C)C12CC3CC(CC(C3)C1)C2", "note": "(configuration not stated)", "Potency": "inconclusive: 35.5 µM [inhibitor, single point]"}
{"molecule": "COc1cc(C)nc2nc(SCc3ccccc3)nn12", "Potency": "inconclusive: 0.282 µM [inhibitor, full curve, poor fit]"}
{"molecule": "Cc1ccccc1-c1nc(CN(Cc2c(C)nn(C)c2C)C2CC2)c(C)o1", "Potency": "inconclusive: 22.4 µM [inhibitor, single point]"}
{"molecule": "COc1ccccc1NC(=O)c1ccc2c(c1)N(CC#N)C(=O)C(C)(C)O2", "Potency": "inconclusive: 28.2 µM [inhibitor, single point]"}
{"molecule": "O=C(CSc1ccc2nnc(-c3ccccc3)n2n1)NCC1CCCO1", "note": "(configuration not stated)", "activity change, negative = inhibition": "inactive: 7.86%"}
{"molecule": "CCCc1nc2c(=O)n(C)c(=O)[nH]c2n1C", "Potency": "inconclusive: 12.6 µM [activator, single point]"}
{"molecule": "COc1cc2c(cc1OC)CN(C(=O)CSc1ccccc1C)CC2", "activity change, negative = inhibition": "inactive: 15.6%"}
{"molecule": "COc1ccc(CC(=O)Nc2cccc(C(=O)O)c2C)cc1", "Potency": "inconclusive: 29.1 µM [activator, single point]"}
{"molecule": "O=C(CSc1nnc(-c2ccc(Br)o2)n1Cc1ccccc1)c1ccccc1F", "Potency": "inactive"}
{"molecule": "CCOc1ccc(Nc2nc3cc(Cl)c(Cl)cc3nc2-n2nc(C)cc2C)cc1", "activity change, negative = inhibition": "inactive: -3.04% [at 46.1 µM]"}
{"molecule": "CCCCOC(=O)CSC1=C(C#N)[C@H](c2ccc3c(c2)OCO3)CC(=O)N1", "activity change, negative = inhibition": "inactive: 7.44%"}
{"molecule": "CCOC(=O)N1CCC(NC(=O)C2CCN(S(=O)(=O)c3ccc4c(c3)oc(=O)n4C)CC2)CC1", "Potency": "inconclusive: 11.2 µM [inhibitor, partial curve, poor fit]"}
{"molecule": "COc1ccc(Cl)cc1NC(=O)c1cn(C2CCCCC2)c(=O)c2c1c1ccccc1n2C", "activity change, negative = inhibition": "inactive: 9.73% [at 46.1 µM]"}
{"molecule": "Cc1ccc(C(=O)NC(=S)Nc2cc(C(F)(F)F)ccc2Cl)cc1", "Potency": "inconclusive: 22.4 µM [inhibitor, single point]"}
{"molecule": "CC1CC(C)CN(C(=O)COC(=O)/C=C/c2ccco2)C1", "note": "(configuration not stated)", "Potency": "inconclusive: 12.6 µM [activator, partial curve, poor fit]"}
{"molecule": "CC(C)CCn1c(Sc2nc3ccccc3o2)nc2c1c(=O)[nH]c(=O)n2C", "Potency": "inconclusive: 17.8 µM [inhibitor, single point]"}
{"molecule": "C=CCNC(=O)c1ccc(OC)cc1OC", "Potency": "inconclusive: 9.2 µM [activator, partial curve, poor fit]"}
{"molecule": "CNC(=O)c1nn(-c2ccc(C)cc2)ccc1=O", "activity change, negative = inhibition": "inactive: 7.82%"}
{"molecule": "COc1ccccc1CCNC(=O)C1CCN(c2nnc(-n3cccc3CNc3ccc(C)cc3)s2)CC1", "activity change, negative = inhibition": "inactive: 21.3% [at 46.1 µM]"}
{"molecule": "CC(C)C[C@H]1COc2cccc(F)c2S(=O)(=O)N1", "Potency": "inconclusive: 0.0009 µM [activator, full curve, poor fit]"}
{"molecule": "N#Cc1c(-c2ccc(Cl)cc2)c(C#N)c(=O)n(N)c1N", "Potency": "inconclusive: 35.5 µM [activator, single point]"}
{"molecule": "O=C(CSc1nc2c(sc3ccccc32)c(=O)n1Cc1ccco1)NCC1CCCO1", "note": "(configuration not stated)", "Potency": "inconclusive: 29.1 µM [inhibitor, single point]"}
{"molecule": "CCOc1ccc(N2C(=O)CCC2=O)cc1", "activity change, negative = inhibition": "inactive: 22.1%"}
{"molecule": "COc1ccc(OCCSc2nnnn2C2CCCCC2)cc1", "Potency": "inconclusive: 7.94 µM [activator, partial curve, poor fit]"}
{"molecule": "COc1ccccc1C(CNc1nc(C(F)(F)F)nc2ccccc12)N(C)C", "note": "(configuration not stated)", "Potency": "inconclusive: 14.1 µM [inhibitor, partial curve, poor fit]"}
{"molecule": "O=[N+]([O-])c1cc(S(=O)(=O)c2ccc(O)c([N+](=O)[O-])c2)ccc1O", "Potency": "inconclusive: 0.891 µM [activator, partial curve, poor fit]"}
{"molecule": "COC(=O)CSc1nnc(CCc2nc3ccccc3[nH]2)n1C", "Potency": "inconclusive: 11.2 µM [activator, partial curve, poor fit]"}
{"molecule": "Cc1cc(N/C=C/C(=O)c2cccc3ccccc23)no1", "activity change, negative = inhibition": "inactive: 2.44%"}
{"molecule": "CC(Oc1ccc(Cl)cc1Cl)C(=O)OCC(=O)c1c(N)n(C)c(=O)n(C)c1=O", "note": "(configuration not stated)", "activity change, negative = inhibition": "inactive: -9.65%"}
{"molecule": "COc1ccccc1N(Cc1ccccc1)S(=O)(=O)c1cccc(C(=O)NC2CC(C)(C)NC(C)(C)C2)c1", "Potency": "inconclusive: 10 µM [inhibitor, partial curve]"}
{"molecule": "C#CCCCON=C1C[C@@H](O)[C@@H](O)[C@@H]2[C@H]3C(=O)N([C@@H](C)c4ccccc4)C(=O)[C@@H]3CC[C@H]12", "Potency": "inconclusive: 0.133 µM [inhibitor, partial curve, poor fit]"}
{"molecule": "C=CCNC(=S)Nc1ccc2nc(C)c(C)nc2c1", "activity change, negative = inhibition": "inactive: 3.47%"}
{"molecule": "Cc1ccc(S(=O)(=O)N(Cc2nc(-c3cccc(C)c3)no2)C2CCCCC2)cc1", "activity change, negative = inhibition": "inactive: 13.7% [at 46.1 µM]"}
{"molecule": "C/C(=N\\Nc1nccnc1Cl)c1ccc(O)c(C)c1", "Potency": "inconclusive: 6.31 µM [activator, full curve, poor fit]"}
{"molecule": "CCCN(Cc1cc2ccc(C)cc2[nH]c1=O)C(=O)c1ccccn1", "Potency": "inconclusive: 11.2 µM [activator, single point]"}
{"molecule": "COc1ccc(-c2noc(C3CCCN(C(=O)c4ccccc4OC)C3)n2)cc1", "note": "(configuration not stated)", "Potency": "inconclusive: 22.4 µM [inhibitor, single point]"}
{"molecule": "COc1ccc(C(=O)N/C(=C\\c2cccc3ccccc23)C(=O)N2CCN(C)CC2)cc1OC", "Potency": "inconclusive: 35.5 µM [inhibitor, partial curve, poor fit]"}
{"molecule": "CCN(CC)S(=O)(=O)c1cccc(C(=O)Nc2ccc(C#N)cc2)c1", "activity change, negative = inhibition": "inactive: -22.6%"}
{"molecule": "CCOC(=O)c1c(C)[nH]c(C)c1C(=O)COC(=O)c1cccs1", "activity change, negative = inhibition": "inactive: 9.33%"}
{"molecule": "COc1ccc(Cc2nc(-c3ccccc3)no2)cc1", "Potency": "inconclusive: 11.6 µM [activator, partial curve, poor fit]"}
{"molecule": "COc1ccc(/C=N/Nc2ncc(C(F)(F)F)cc2Cl)cc1OC", "Potency": "active: 12.6 µM"}
{"molecule": "O=C(c1ccccc1)c1cccc(NC(=O)C2CC2)c1", "activity change, negative = inhibition": "inactive: 22.2%"}
{"molecule": "O=C(Nc1nnc(-c2cccs2)o1)c1ccc(S(=O)(=O)N2CCOCC2)cc1", "Potency": "inconclusive: 7.08 µM [inhibitor, partial curve, poor fit]"}
{"molecule": "COc1ccccc1OCC(O)Cn1c(=N)n(CCN2CCCCC2)c2ccccc21", "note": "(configuration not stated)", "Potency": "inconclusive: 5.8 µM [inhibitor, partial curve, poor fit]"}
{"molecule": "COc1ccc2c(c1)CCc1c(C(=O)Nc3c(C)nn(Cc4ccccc4C)c3C)noc1-2", "Potency": "inconclusive: 35.5 µM [inhibitor, single point]"}
{"molecule": "COc1ccc2oc(C(=O)OCC(=O)Nc3ccccc3OC)c(C)c2c1", "activity change, negative = inhibition": "inactive: -13.1%"}
{"molecule": "Cc1cccc(OCC(=O)NCCNC(=O)c2ccncc2)c1", "activity change, negative = inhibition": "inactive: -9.82% [at 46.1 µM]"}
